According to PubChem BioAssay AID1671190 (National Center for Advancing Translational Sciences (NCATS), 2021):
Hit rate of the full screen: of about 580,000 compounds, about 6,100 (1.1%) were called active. The inconclusive results got no clear call from the source; some entries with a clear call stand among them for comparison. The call rests on the fitted dose curve; in most records, active means well fitted inhibition curve with a large enough effect; inconclusive means small, poorly fitted or top-dose-only effect, or another doubt; inactive means no such curve, though single readings can be large or run the other way. Potencies beside an inconclusive call are fits to weak or partial responses and may not hold up.

Sequences of proteins named here, by UniProt entry; tags and fusion partners are left off. A change or cut given only in a name is not applied to a line headed by its entry.
UniProt P18054: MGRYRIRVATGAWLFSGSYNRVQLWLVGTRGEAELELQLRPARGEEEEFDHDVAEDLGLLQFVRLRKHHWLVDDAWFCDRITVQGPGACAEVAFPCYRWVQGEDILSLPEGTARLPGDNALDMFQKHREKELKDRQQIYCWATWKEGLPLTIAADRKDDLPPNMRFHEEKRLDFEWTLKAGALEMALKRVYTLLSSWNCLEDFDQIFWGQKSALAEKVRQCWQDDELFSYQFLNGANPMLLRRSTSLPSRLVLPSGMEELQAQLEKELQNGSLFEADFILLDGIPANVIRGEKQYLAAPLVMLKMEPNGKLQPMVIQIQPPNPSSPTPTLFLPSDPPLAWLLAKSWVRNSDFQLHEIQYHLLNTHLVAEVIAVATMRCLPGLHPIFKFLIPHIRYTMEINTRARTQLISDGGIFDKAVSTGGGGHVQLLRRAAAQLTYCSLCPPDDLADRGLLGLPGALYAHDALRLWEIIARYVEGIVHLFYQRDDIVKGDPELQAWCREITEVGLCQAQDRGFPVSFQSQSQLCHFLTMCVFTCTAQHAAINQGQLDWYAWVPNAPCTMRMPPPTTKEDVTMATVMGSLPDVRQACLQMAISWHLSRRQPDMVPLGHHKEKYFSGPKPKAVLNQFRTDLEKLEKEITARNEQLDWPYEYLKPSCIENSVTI

biological target: Polyunsaturated fatty acid lipoxygenase ALOX12 (Homo sapiens) (UniProt P18054); test: Primary qHTS assay for inhibitors of human arachidonate 12S-lipoxygenase (ALOX12): Round 2; settings: purified 12hLO, xylenol orange hydroperoxide absorbance; series mostly up to 108 µM
How it was run: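 Purified human 12hLO (150 nM final) in 25 mM Hepes, 0.01% Triton X-100, pH 7.0 was preincubated 15 min at room temperature with compound. Then 40 uM arachidonic acid was added, 30 min. Hydroperoxide was read by Fe-XO absorbance ratio 573/405 nm.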
Potency means the concentration at half of the fitted maximal effect.

Row | Structure (SMILES) | Potency
1 | N#Cc1c(Cl)nsc1NN | inconclusive: 44.7 µM [inhibitor, partial curve, poor fit]
2 | Cc1ccc(S(=O)(=O)N2CCN(C(=O)COC(=O)c3cccc4ccccc34)CC2)c(C)c1 | inconclusive: 56.2 µM [inhibitor, partial curve, poor fit]
3 | Cc1nnc(SCC(=O)Nc2cc(C(C)(C)C)nn2-c2ccccc2)s1 | inactive
4 | CCOc1cc(CNCCc2ccc(S(N)(=O)=O)cc2)ccc1OCc1ccc(Cl)cc1 | inconclusive: 35.5 µM [inhibitor, partial curve, poor fit]
5 | Cc1c(Cl)cccc1S(=O)(=O)Nc1cccc(NC(N)=O)c1 | inconclusive: 50.1 µM [inhibitor, partial curve, poor fit]
6 | NC(=O)C1(NC(=O)[C@@H]2CC3(CC(c4cccc(NC(=O)[C@@H]5CCC(=O)N5)c4)=NO3)CN2C(=O)Cc2ccc(C(F)(F)F)cc2)CC1 (stereo not given in full) | inconclusive: 44.7 µM [inhibitor, partial curve]
7 | COC1CN(c2ccc(C)cc2)C12CCN(C(=O)c1ccnn1C)CC2 (stereo not given) | inactive
8 | O=C(c1ccc(S(=O)(=O)N2CCOCC2)cc1)N(c1ccc(Cl)cc1)C1C=CS(=O)(=O)C1 (stereo not given) | inactive
9 | CCOc1ccccc1NC(=O)CSc1ncc(S(=O)(=O)c2ccc(C(C)(C)C)cc2)c(=O)[nH]1 | inconclusive: 112 µM [inhibitor, single point]
10 | Fc1ccccc1-c1n[nH]c(=S)n1/N=C/c1c[nH]c2ccccc12 | inconclusive: 2.82 µM [inhibitor, full curve, poor fit]
11 | OC1CCCC1NCc1ccnc2cc(Cl)ccc12 (stereo not given) | inconclusive: 5.01 µM [inhibitor, full curve]
12 | O=c1[nH]c(=S)[nH]cc1Oc1ccc(Cl)cc1Cl | inconclusive: 4.47 µM [inhibitor, full curve, poor fit]
13 | CC1CCCN(C(=O)c2ccc(OC3CCN(CCc4ccccc4)CC3)cc2)C1 (stereo not given) | inactive
14 | Cc1ccc(N(Cc2cc(=O)[nH]c3ccccc23)C(=O)CCl)c(C)c1 | inconclusive: 50.1 µM [inhibitor, partial curve, poor fit]
15 | O=C(Nc1nncs1)C1COc2ccccc2O1 (stereo not given) | inconclusive: 70.8 µM [inhibitor, partial curve, poor fit]
16 | CC(C)c1nc2cc(NC(=O)C[C@H]3NC(=O)c4ccccc4NC3=O)ccc2n1C | inactive
17 | Cc1ccc(S(=O)(=O)NCC2(c3ccccc3)CC2)c(Cl)c1 | inactive
18 | O=C1CN=C(Nc2ccccc2Cl)N1Cc1ccc2c(c1)OCO2 | inconclusive: 25.1 µM [inhibitor, partial curve, poor fit]
19 | Cc1ccc(S(=O)(=O)N2CCC(=O)N(C(COCc3cccc(C)c3)Cc3ccccc3)CC2)cc1 (stereo not given) | inconclusive: 89.1 µM [inhibitor, single point]
20 | O=C1CC(C(=O)Nc2ccc(F)cc2)c2c(nc(SCCc3ccccc3)[nH]c2=O)N1 (stereo not given) | inconclusive: 178 µM [inhibitor, partial curve, poor fit]

Row | Structure (SMILES) | Potency
21 | O=c1oc2ccccc2c(Sc2ccccc2)c1Sc1ccccc1 | inconclusive: 50.1 µM [inhibitor, partial curve, poor fit]
22 | CCn1c(=O)c(C(=O)NCc2ccc(Cl)cc2)c(O)c2ccccc21 | inactive
23 | CCN(C(C)C(=O)Nc1ccc(C)cc1)S(=O)(=O)c1cccc2cc(C)cnc12 (stereo not given) | inconclusive: 25.1 µM [inhibitor, partial curve, poor fit]
24 | N=C(N)c1cc(I)cc([N+](=O)[O-])c1 | inconclusive: 112 µM [inhibitor, single point]
25 | COC(=O)[C@@]1(Sc2ccccc2)CC(=O)N[C@@H]1c1ccccc1 | inconclusive: 31.6 µM [inhibitor, partial curve, poor fit]
26 | O=C(CCS(=O)(=O)c1nc(-c2ccc3c(c2)OCO3)cc(C(F)(F)F)n1)Nc1ccc(F)c(Cl)c1 | inactive
27 | CCOc1ccc(N2CC(C(=O)NCCc3ccc(S(N)(=O)=O)cc3)CC2=O)cc1 (stereo not given) | inconclusive: 89.1 µM [inhibitor, partial curve, poor fit]
28 | CCOC(=O)/C=C1\OC2(O)CC(C1C(=O)OCC)[C@H]1CO[C@@H]2O1 (stereo not given in full) | inactive
29 | Cc1ccc(C2=Nc3ccccc3N(C(=O)c3ccccc3)C(C)C2)cc1 (stereo not given) | inactive
30 | Clc1ccc(-c2nnc(Sc3nc4ccccc4o3)c3ccccc23)cc1 | inactive
31 | CCOC(=O)c1c(C2COc3ccccc3O2)csc1N (stereo not given) | inconclusive: 70.8 µM [inhibitor, partial curve, poor fit]
32 | Cc1cc2oc(=O)cc(Cn3nc(C)c(C)c(C#N)c3=O)c2cc1C | inconclusive: 17.8 µM [inhibitor, partial curve, poor fit]
33 | O=C(CC(c1ccccc1)S(=O)(=O)c1ccccc1)c1ccc(F)cc1 (stereo not given) | inconclusive: 10 µM [inhibitor, partial curve, poor fit]
34 | CCCOc1ccc(/C(O)=C2/C(=O)C(=O)N(CCN(C)C)C2c2ccco2)cc1 (stereo not given) | inconclusive: 44.7 µM [inhibitor, partial curve]
35 | CCCCNC(=S)N(CCCN(C)C)Cc1cc2cc3c(cc2[nH]c1=O)OCO3 | inconclusive: 39.8 µM [inhibitor, partial curve, poor fit]
36 | COc1ccc(C(CC(=O)N2CCCC(C)C2)c2c(OC)cc(OC)c3c(-c4ccccc4)cc(=O)oc23)cc1 (stereo not given) | inconclusive: 50.1 µM [inhibitor, partial curve, poor fit]
37 | CCC(=O)NC(=S)Nc1ccc(S(=O)(=O)NC2CCCCC2)cc1 | inconclusive: 79.4 µM [inhibitor, partial curve, poor fit]
38 | CCCOc1ccc(CC(CC(=O)O)(C(=O)O)C(=O)O)cc1 | inconclusive: 100 µM [inhibitor, single point]
39 | COc1ccc(NC(=O)CCNS(=O)(=O)c2cccc3nonc23)c(OC)c1 | inconclusive: 126 µM [inhibitor, partial curve, poor fit]
40 | O=C(Nc1cc(-c2nc3ccccc3o2)ccc1Cl)c1ccc([N+](=O)[O-])o1 | inconclusive: 100 µM [inhibitor, partial curve, poor fit]

Quoted at random: two compounds from above.
Row | Structure (SMILES) | Potency
33 | O=C(CC(c1ccccc1)S(=O)(=O)c1ccccc1)c1ccc(F)cc1 (stereo not given) | inconclusive: 10 µM [inhibitor, partial curve, poor fit]
40 | O=C(Nc1cc(-c2nc3ccccc3o2)ccc1Cl)c1ccc([N+](=O)[O-])o1 | inconclusive: 100 µM [inhibitor, partial curve, poor fit]
